These results are taken from US20210130459A1 (YISSUM RESEARCH DEVELOPMENT COMPANY OF THE HEBREW …, published 2021).

Positions count from the first letter of the chain named. No constants are given. Whether binding was seen depends on the method and setting. Some entries that bind do so weakly or less than the wild type.

The target of assay [1] is Cynomolgus (Cyno)-Nectin-4 expressed on CHO cells (cynomolgus). In words: FACS titration on CHO cells transfected with Cyno-Nectin-4.
Assay [2] shares this target. In words: FACS titration (20-0.01 nM) on CHO cells transfected with Cynomolgus Nectin-4.

B1: monoclonal antibody hNec4.05 (antibody, IgG1, V domains shown)
VH: QVQLQQSGPELVKPGASVRISCKASGYTFTTYYIHWVKQRPGQGLEWIGWIYPGNVNTKNNEKFKVKATLTADKSSSTAYMQLSSLTSEDSAVYFCARSNPYVMDYWGQGTSVTVSS
VL: SIVMTQTPKFLLVSAGDRVTITCKASQSVSNDVAWYQQKPGQSPKLLIYYASNRYTGVPDRFTGSGYGTDFTFTISAVQAEDLAVYFCQQDYSSPYTFGGGTKLEIK
notes: also called Nectin4.05; Clone 5
For the molecule B1, the binding result in assay [1] and in assay [2] was “binds” throughout.

B2: monoclonal antibody hNec4.11 (antibody, V domains shown)
VH: B1 VH with G15E, A16T, R19K, T31S, N60Y, K63R, V66G, S77N, Y80H, S84T
VL: B1 VL with S30N, Q42L, K45E, I48M, Y55F, A77S, V85I, D91A, S93R, K107Q
notes: also called Nectin4.11; clone 11
Turning to B2, the binding entry in assay [1] and in assay [2] was “binds” throughout.
